Test results reported in paper PMC10575725.

Protein sequences, listed by entry. Tags and fused reporters are not part of them.
UniProt Q8R4B8: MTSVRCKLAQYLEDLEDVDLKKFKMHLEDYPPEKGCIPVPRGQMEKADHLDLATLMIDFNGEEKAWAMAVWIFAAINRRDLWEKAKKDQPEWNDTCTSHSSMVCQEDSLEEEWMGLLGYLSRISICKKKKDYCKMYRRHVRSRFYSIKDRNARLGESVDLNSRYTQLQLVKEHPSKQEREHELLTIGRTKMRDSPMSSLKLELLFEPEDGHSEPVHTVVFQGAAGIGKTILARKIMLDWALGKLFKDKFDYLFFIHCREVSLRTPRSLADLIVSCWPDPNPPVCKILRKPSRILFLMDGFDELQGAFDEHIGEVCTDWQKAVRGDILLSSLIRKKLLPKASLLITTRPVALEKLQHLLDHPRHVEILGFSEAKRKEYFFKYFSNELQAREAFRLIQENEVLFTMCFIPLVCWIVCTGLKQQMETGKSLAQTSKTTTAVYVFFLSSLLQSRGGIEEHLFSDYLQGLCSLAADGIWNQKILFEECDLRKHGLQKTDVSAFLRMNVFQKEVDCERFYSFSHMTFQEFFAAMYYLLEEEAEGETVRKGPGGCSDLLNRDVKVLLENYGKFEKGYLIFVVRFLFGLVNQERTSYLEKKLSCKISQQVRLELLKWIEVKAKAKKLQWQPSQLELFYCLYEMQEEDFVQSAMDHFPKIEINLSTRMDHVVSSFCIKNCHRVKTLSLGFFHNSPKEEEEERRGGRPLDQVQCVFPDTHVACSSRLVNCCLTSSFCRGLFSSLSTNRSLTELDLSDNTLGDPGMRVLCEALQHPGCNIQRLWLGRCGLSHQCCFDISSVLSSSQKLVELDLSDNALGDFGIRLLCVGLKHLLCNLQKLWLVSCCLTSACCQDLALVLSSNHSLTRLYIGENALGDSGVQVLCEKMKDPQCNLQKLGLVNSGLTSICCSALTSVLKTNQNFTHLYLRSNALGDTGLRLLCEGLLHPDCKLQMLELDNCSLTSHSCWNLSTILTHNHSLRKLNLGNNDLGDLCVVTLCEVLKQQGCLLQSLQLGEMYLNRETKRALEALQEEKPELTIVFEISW

Biological target: NLRP3 (NOD-, LRR-, and pyrin domain-containing protein 3), endogenous, mouse peritoneal macrophages (mouse (endogenous in peritoneal macrophages)) (UniProt Q8R4B8)
Assay: affinity purification with mass spectrometry; anti-NLRP3 antibody incubated with total cell lysates of LPS-stimulated mouse primary peritoneal macrophages; complex separated by SDS-PAGE, LC-MS/MS

B1: HERC6 (HECT domain- and RCC1-like domain-containing protein 6), endogenous, mouse peritoneal macrophages (enzyme, UniProt F2Z461 1-1003)
chain: MYFSWAAGSRKPRRLKAGTSGIELLQAASGEHHSLLLFSNHRVYSCGDNSWGQLGQRRDQSTERPEPIQALNDLHVDLVSCGKEHSVAVCHKGKVFAWGAGSEGQLGIGEFKEISFMPTKIKALAGIKIIQVSCGHYHSLALSEDGHVFSWGRNSEGQLGLGKNSRSQAIPQKVKSLEGIPLAQVAAGGTHSFALSLTGTSFGWGSNRSGQLALSGNKVKEQIYKPHSIGALKNLSVIYISCGYEHTAVLTEEGQVFTFGGNSSGQLQPSPRSGQRGPQLIEGIGGRVSQIECASYHTIAYVYTTGQVVSLGRGPSHTSNPTHQEAPAENSDITCLLAAEDLVDIEVKDIFAGAHANFVTTRRVSHTRSTGVSMKILPEIIRINQSLVKKWRAANKRKDREGAKREISLIFSSSACLTASFLKKRDAGENNLIDVDLKLARDVFKKLTTEKWISSLITTCLEEYLLRDLPYSSPHQEALLVFLLLPECSIMQDPKNWKTLAFEFAKAIHKMGPQSLAFLRTCWASLEVSSLNILVQMLKKAIISQIQYGVATEQYITNIKVLLEVIKEVHKANCQLPESAFIINELSGIFNFDAEAGRMFIRHNDLDCTESSDMVVFSDFLFVFDLPSKIKLMKCDSFVKLMSEVMAFPEKMSSPPYLILKVRRSHLVEDTLRQLRQVEDFDLRKQLSVGFINEIRPEAGGVSSEFFHCIFEEMTDPKYEMFIYPEKGSSMWFPVNPKFEKSSYFLFGILCGLSLHNLKVINLPFPLALYKKLLNQKPSLEDLKELSLPLGRNLQEVLNCEAGDIEELHMYFSIYWDQKDVDLIPDGISVPVNETNKRDYVSKYVDYIFNISIKTIYEEFHRGFYKVCNWDIIRQFQPEELMTAIIGNATCDWKQFENNSKYKDGYDKSHPTILLFWKAFHDLTLDEKKKFLLFLTGCDRLHVKGLQNEGIVFRCSETFSEEDNPRSLTCHRMLDLPKYSSMRRMKEALQVAINNSTGFVSQE
  binding: binds

These are yes or no findings as the source states them, for the method shown. In cells and extracts the contact can be indirect. These calls come from enrichment with a bait or labelling near it, and not all partners need be listed.
